# Literature values in article PMC8015229, “Focus on Human Monoamine Transporter Selectivity. New Human DAT and NET Models, Experimental Validation, and SERT Affinity Exploration” (ACS Chemical Neuroscience, 2020).
# Key:
# [1] = biological target: NET; settings: binding affinity for human transporters; cited from earlier work
# [2] = biological target: DAT; settings: binding affinity for human transporters; cited from earlier work
compound,measurement,setting,value
"CNCCCC12CCC(c3ccccc31)c1ccccc12 [compound 7, maprotiline]",NET pKi exp,[1],7.95
same,DAT pKi exp,[2],6
